## Library screening results

Data taken from ChEMBL document CHEMBL3988442, “University of Dundee, Small-Polar-MMV Screening Library” (2021).

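Assay on Mycobacterium tuberculosis, filed only as a heat shock assay from Cornell; the read-out is not stated. The concentration is filed as 10 mM, unlikely as a test dose, so the dose is not known. The record gives no direction; compounds that gave an IC50 in retests scored well above the rest, so higher reads as stronger inhibition. Size under these conditions: about 69,000 compounds, about 930 of them at 50% or above in at least one test.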

Each number is a percent effect as filed. The record does not define 0% and 100%; most values in the screen are far below 50% and negative numbers occur (in some assays of this library far below -100). This is an unselected part of the compounds tested.

{"smiles": "COc1cccc2c1N(S(=O)(=O)c1cc(C(=O)O)cs1)CCC2", "percent effect": -22.9}
{"smiles": "CC(=O)N(CCC(=O)NC1(C#N)CCC1)Cc1ccccc1", "percent effect": -21.86}
{"smiles": "[H][C@]12CCC[C@@]1(COCC(=O)N1CCCC1)CN(Cc1cc(C)on1)C2", "percent effect": 0.06283}
{"smiles": "CC(NCc1ccncc1)c1ccc(N2CCN(C)CC2)c(F)c1.Cl", "stereo": "stereo unspecified", "percent effect": -3.446}
{"smiles": "CC1CCN(C(=O)c2sccc2-n2cnnn2)CC1", "percent effect": -76.64}
{"smiles": "Cc1nc[nH]c1C(=O)N1CCCC2(CN(C)C(=O)O2)C1", "stereo": "stereo unspecified", "percent effect": -16.91}
{"smiles": "CC(C)N1CC(C(=O)N2CCN(CCn3cccc3)CC2)CC1=O", "stereo": "stereo unspecified", "percent effect": -2.365}
{"smiles": "CCS(=O)(=O)N1CCC(c2nnc(CN3CCCCCC3)n2C)CC1", "percent effect": -5.406}
{"smiles": "O=C(O)C(F)(F)F.[H][C@@]12COC[C@]1(CNS(=O)(=O)CC)CN(Cc1sccc1C)C2", "percent effect": 4.726}
{"smiles": "CN1CCOC(C)(C(=O)N2CCN(C3CCCC3)CC2)C1", "stereo": "stereo unspecified", "percent effect": 8.639}
{"smiles": "O=C(C(c1ccccc1)N1CCc2cncnc2C1)N1CCCCC1", "stereo": "stereo unspecified", "percent effect": -29.33}
{"smiles": "O=S1(=O)CCC(CNc2cc(-c3ccccc3)nc3ccnn23)C1", "stereo": "stereo unspecified", "percent effect": -4.524}
{"smiles": "c1cnc(N2CCc3onc(CN4CCCC4)c3C2)cn1", "percent effect": -11.39}
{"smiles": "O=C(O)c1cc(-c2cccs2)nc2c(Cl)cnn12", "percent effect": -0.9877}
{"smiles": "Cn1cc(C(=O)N2CCCC2c2[nH]ncc2C(N)=O)cn1", "stereo": "stereo unspecified", "percent effect": -1.361}
{"smiles": "CCc1nccn1C1CCCN(C(=O)c2csc(NC(C)=O)n2)C1", "stereo": "stereo unspecified", "percent effect": 20.66}
{"smiles": "Cc1ncsc1CCN1CCC(N(C)Cc2noc(C(C)C)n2)C1", "stereo": "stereo unspecified", "percent effect": -24.18}
{"smiles": "O=C(O)C(F)(F)F.[H][C@@]12CCN(c3ncccn3)[C@]1([H])CC[C@H](C(=O)NCc1ccco1)O2", "percent effect": -32.69}
{"smiles": "O=C(CCCNc1ncccn1)N1CCCC(n2cncn2)C1", "stereo": "stereo unspecified", "percent effect": 5.991}
{"smiles": "CCN(CC)C(=O)[C@@H]1C[C@@H](NC(=O)c2cccn2C2CC2)CN1C", "percent effect": -11.74}
{"smiles": "O=C1CC(c2ccsc2)c2sc(C(=O)O)c(-c3ccc(F)cc3)c2N1", "stereo": "stereo unspecified", "percent effect": -4.902}
{"smiles": "COc1ccc(CNC(=O)Nc2cccnc2OC)cc1O", "percent effect": -19.13}
{"smiles": "Cc1nc(C2CCCN2CCCc2nc3ccccc3o2)no1", "stereo": "stereo unspecified", "percent effect": -4.268}
{"smiles": "Cc1nn(C)c(Cl)c1C1CCCN1C(=O)c1cnc[nH]1", "stereo": "stereo unspecified", "percent effect": -11.67}
{"smiles": "CS(=O)(=O)c1ccccc1C(=O)NCCCN1CCc2ccccc2C1", "percent effect": -8.785}
{"smiles": "CCN(CCn1cccn1)Cc1nc(-c2ccoc2)oc1C", "percent effect": -23.87}
{"smiles": "COCC(=O)Nc1ccc2c(c1)C1(CCOCC1)CN2CCF.O=C(O)C(F)(F)F", "percent effect": 8.619}
{"smiles": "CC(C)n1ccnc1CN1CCCN(C(=O)CC2CCCO2)CC1", "stereo": "stereo unspecified", "percent effect": -7.243}
{"smiles": "Cc1cc(C(=O)N2CCN(Cn3cc(Cl)cn3)CC2)c(C)o1", "percent effect": 11.47}
{"smiles": "CCc1nc(C2CCCN(C(=O)C3=NN(CC)C(=O)CC3)C2)no1", "stereo": "stereo unspecified", "percent effect": 7.784}
{"smiles": "c1cnn(CC2CN(Cc3nc(C4CC4)no3)CCO2)c1", "stereo": "stereo unspecified", "percent effect": -15}
{"smiles": "[H][C@@]12CN(Cc3cccnc3)CCO[C@]1([H])CN(C(=O)c1cnccn1)C2", "percent effect": -39.29}
{"smiles": "CCN(CC)C(=O)c1ccc(COc2ccccc2C#N)o1", "percent effect": -4.494}
{"smiles": "Nc1cnc(-c2cccc3c2CCNC3)cn1", "percent effect": -40.3}
{"smiles": "Cc1nc2c(c(N3CC=CC3)n1)CCN(Cc1ccoc1)CC2", "percent effect": 5.586}
{"smiles": "CN([C@@H]1CC[C@@H](N2CCOCC2)[C@@H]1O)S(=O)(=O)c1ccccc1", "percent effect": -0.703}
{"smiles": "COc1ccccc1OC1(C(=O)O)CCN(c2cnccn2)CC1", "percent effect": -28.75}
{"smiles": "O=C(N[C@@H]1CCNC[C@H]1O)c1ccc(O)c(Cl)c1", "percent effect": 15.74}
{"smiles": "Cc1nc(-c2ccccc2)n(CC(=O)NC(C2CC2)C2CC2)n1", "percent effect": 6.832}
{"smiles": "O=C(Cn1ccnc1)N1CCC(n2cc(-c3cccc(Cl)c3)nn2)CC1", "percent effect": -12.03}
{"smiles": "OCC1CCCCN1c1ccc(-c2nc(-c3ccccc3F)no2)cn1", "stereo": "stereo unspecified", "percent effect": -2.996}
{"smiles": "CC1CN(C(=O)c2nccnc2N)c2ccc(F)cc2O1", "stereo": "stereo unspecified", "percent effect": 5.489}
{"smiles": "COc1ccc(CN2CCN(C3CCc4ccccc4C3)CC2)cc1O", "stereo": "stereo unspecified", "percent effect": 7.33}
{"smiles": "CCC1CCCCN1Cc1nc2c(cnn2C)c(=O)[nH]1", "stereo": "stereo unspecified", "percent effect": -5.707}
{"smiles": "CC(=O)N1CCCN(C(=O)NC(C)Cn2ccnc2)CC1", "stereo": "stereo unspecified", "percent effect": 12.74}
{"smiles": "CS(=O)(=O)CCSCc1ccc(Br)c(F)c1", "percent effect": -5.652}
{"smiles": "O=C(CCN1CCCC(CO)(CC2CC2)C1)NCc1cccc(Cl)c1", "stereo": "stereo unspecified", "percent effect": 6.123}
{"smiles": "N#Cc1c(F)cccc1N1CCN(C(=O)Nc2nncs2)CC1", "percent effect": 3.107}
{"smiles": "CC(CNC(=O)N1CCC(CO)CC1)Cc1cccs1", "stereo": "stereo unspecified", "percent effect": 11.05}
{"smiles": "Fc1cccc(-n2ccc(CN3CCCC3Cn3cncn3)n2)c1", "stereo": "stereo unspecified", "percent effect": -4.642}
{"smiles": "CCOCCN1C[C@H](c2cccc(OC)c2)[C@@H](N)C1", "percent effect": 1.235}
{"smiles": "CCn1nccc1CNC(=O)Cn1cc2c(n1)c(C)nn2C(C)C", "percent effect": 2.151}
{"smiles": "O=C(c1cc(Cl)c2c(c1)OCCCO2)N(CC1CCOC1)C1CC1", "stereo": "stereo unspecified", "percent effect": -2.225}
{"smiles": "O=C(c1cccnc1)N1CCSCC1", "percent effect": 18.05}
{"smiles": "[H][C@@]12CS(=O)(=O)C[C@]1([H])N(Cc1ccc3occc3c1)CCN2C(=O)N(C)C", "percent effect": 0.8723}
{"smiles": "Cc1cc(NC(=O)CN2CCc3c(nc(C(C)C)n3C)C2)n(C)n1", "percent effect": -6.908}
{"smiles": "NC(=O)NC(=O)CCSCc1coc(-c2ccc(F)cc2)n1", "percent effect": 7.708}
{"smiles": "c1ccc2oc(CCCN3CCCC3Cn3cncn3)nc2c1", "stereo": "stereo unspecified", "percent effect": 9.925}

Once more, the final 6:

{"smiles": "O=C(c1cc(Cl)c2c(c1)OCCCO2)N(CC1CCOC1)C1CC1", "stereo": "stereo unspecified", "percent effect": -2.225}
{"smiles": "O=C(c1cccnc1)N1CCSCC1", "percent effect": 18.05}
{"smiles": "[H][C@@]12CS(=O)(=O)C[C@]1([H])N(Cc1ccc3occc3c1)CCN2C(=O)N(C)C", "percent effect": 0.8723}
{"smiles": "Cc1cc(NC(=O)CN2CCc3c(nc(C(C)C)n3C)C2)n(C)n1", "percent effect": -6.908}
{"smiles": "NC(=O)NC(=O)CCSCc1coc(-c2ccc(F)cc2)n1", "percent effect": 7.708}
{"smiles": "c1ccc2oc(CCCN3CCCC3Cn3cncn3)nc2c1", "stereo": "stereo unspecified", "percent effect": 9.925}